Test results published in PMC8801411.
Numbering of substitutions follows the chain as printed. No constants are given. Whether binding was seen depends on the method and setting. In cells and extracts the contact can be indirect. Some results given as binding are weak or reduced against the parent protein; the word gives no strength. Tags and fused reporters may be left off the sequences shown.

Sequences of proteins named here, by UniProt entry; tags and fusion partners are left off.
UniProt P16649: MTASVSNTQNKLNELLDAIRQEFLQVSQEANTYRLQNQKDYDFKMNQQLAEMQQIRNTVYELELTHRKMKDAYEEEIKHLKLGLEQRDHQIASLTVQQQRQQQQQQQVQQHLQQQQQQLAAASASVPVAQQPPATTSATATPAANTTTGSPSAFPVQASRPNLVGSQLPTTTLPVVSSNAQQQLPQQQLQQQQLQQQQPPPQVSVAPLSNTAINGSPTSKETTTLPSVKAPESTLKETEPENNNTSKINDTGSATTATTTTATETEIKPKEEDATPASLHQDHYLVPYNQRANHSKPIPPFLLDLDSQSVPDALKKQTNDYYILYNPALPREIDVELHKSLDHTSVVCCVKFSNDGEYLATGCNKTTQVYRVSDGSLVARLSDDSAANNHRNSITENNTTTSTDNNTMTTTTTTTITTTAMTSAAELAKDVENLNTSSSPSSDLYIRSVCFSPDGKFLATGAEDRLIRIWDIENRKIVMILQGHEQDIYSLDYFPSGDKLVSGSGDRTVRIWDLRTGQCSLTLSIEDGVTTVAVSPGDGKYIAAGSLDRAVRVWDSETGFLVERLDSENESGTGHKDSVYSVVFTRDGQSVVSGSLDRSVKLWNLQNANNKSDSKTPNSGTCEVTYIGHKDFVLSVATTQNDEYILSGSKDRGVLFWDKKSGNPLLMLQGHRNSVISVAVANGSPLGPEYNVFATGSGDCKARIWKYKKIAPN

Key:
Experiment in all cases: pull-down; GST-Gal80 fusions immobilised on GSH sepharose, incubated with bacterial (E. coli) total protein extracts containing HA3-Cyc8 or HA3-Tup1; washing of intermediary stringency; elution with 10 mM free GSH; SDS-PAGE and blot with anti-HA-peroxidase conjugate; only the target purified
[1] = target: T1, GST-Gal80 (full-length) (S. cerevisiae) (UniProt P04387)
T1 sequence: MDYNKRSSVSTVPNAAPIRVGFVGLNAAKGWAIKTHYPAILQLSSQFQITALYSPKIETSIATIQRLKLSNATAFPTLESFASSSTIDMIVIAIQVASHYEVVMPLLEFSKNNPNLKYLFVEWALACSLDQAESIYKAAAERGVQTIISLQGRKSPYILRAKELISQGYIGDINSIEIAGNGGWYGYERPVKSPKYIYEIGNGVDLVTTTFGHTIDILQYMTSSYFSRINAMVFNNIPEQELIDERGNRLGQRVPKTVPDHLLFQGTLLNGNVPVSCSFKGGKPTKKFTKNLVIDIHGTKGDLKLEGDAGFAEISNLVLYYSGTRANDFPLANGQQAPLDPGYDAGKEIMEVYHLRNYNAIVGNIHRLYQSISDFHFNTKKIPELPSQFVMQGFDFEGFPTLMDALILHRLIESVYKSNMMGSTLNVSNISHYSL

[2] = target: T2, GST-Gal80 aa 146-220 (S. cerevisiae) (UniProt P04387)
T2 sequence: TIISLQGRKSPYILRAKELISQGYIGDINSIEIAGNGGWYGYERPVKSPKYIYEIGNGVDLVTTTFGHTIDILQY

[3] = target: T3, GST-Gal80 aa 291-435 (S. cerevisiae) (UniProt P04387)
T3 sequence: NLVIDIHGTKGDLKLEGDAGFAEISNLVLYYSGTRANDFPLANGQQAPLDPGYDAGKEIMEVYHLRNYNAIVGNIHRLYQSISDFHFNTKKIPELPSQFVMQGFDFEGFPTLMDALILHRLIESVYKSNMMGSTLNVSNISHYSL

[4] = target: T4, GST-Gal80 aa 81-145 L119A (S. cerevisiae) (UniProt P04387)
T4 sequence: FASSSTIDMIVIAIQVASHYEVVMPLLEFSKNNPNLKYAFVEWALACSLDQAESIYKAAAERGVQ

[5] = target: T5, GST-Gal80 aa 81-145 L125A (S. cerevisiae) (UniProt P04387)
T5 sequence: T4 sequence with A39L, L45A

[6] = target: T6, GST-Gal80 aa 81-145 Y118A (S. cerevisiae) (UniProt P04387)
T6 sequence: T4 sequence with Y38A, A39L

[7] = target: T7, GST-Gal80 aa 81-145 YLF-AAA (pos. 118-120) (S. cerevisiae) (UniProt P04387)
T7 sequence: T4 sequence with Y38A, F40A

HA3-Tup1 (full length) (from UniProt P16649 1-713)
binding [1]: binds
binding [2]: binds
binding [3]: no binding
binding [4]: binds
binding [5]: binds
binding [6]: binds
binding [7]: binds
